Experimental data: PubChem BioAssay AID1259327 (Drosophila RNAi Screening Center, 2017)
The deposit covers about 3,100 reagents; this is a random part of them. 378 of all reagents (12%) were called active. 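Hits include both directions; z-score sign shows ATP rise or fall; raw luminescence values are not plate-normalised.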 A plus sign joins genes that one reagent is predicted to hit. Not stated in the record: the amount of reagent.

- Screen: 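Data from controls in screens of zinc and manganese toxicity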
- Cell system: Drosophila S2R+ cells
- Reagents: long dsRNA against Drosophila genes
- Timing: 5 days (water added on day 4, read one day later)
- Treatment: water added as vehicle, no metal, one day before read-out
- Measurement: 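Total ATP measured by luciferase light, scaled to plate mean, duplicates averaged, then z-scored across plates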
- Reading the numbers: ATP z-score: higher = more total ATP than typical wells; ATP luminescence: higher = more total ATP
- Call rule: 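Called active when the ATP z-score exceeds 1.5 or falls below -1.5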
- Calls: active = hit: ATP up or down; inactive = no clear ATP change

Target gene,amplicon,"ATP z-score, duplicate mean","ATP luminescence, replicate 1 (RLU)","ATP luminescence, replicate 2 (RLU)",Outcome
CG32053,DRSC10683,-2.48,4.58e5,4.74e5,active
Arms (Ankyrin repeat-rich membrane spanning),DRSC03856,-0.136,6.44e5,7.37e5,inactive
Arms (Ankyrin repeat-rich membrane spanning),DRSC04052,1.45,8.18e5,9.56e5,inactive
Yif1 (Yip1-interacting factor 1),DRSC15817,-2.11,5.16e5,6.49e5,active
shg (shotgun),DRSC04714,0.29,7.78e5,7.45e5,inactive
shg (shotgun),DRSC38948,-1.52,4.47e5,4.55e5,active
"FucT6 (alpha1,6-fucosyltransferase)",DRSC19848,0.0194,7.19e5,6.96e5,inactive
"FucT6 (alpha1,6-fucosyltransferase)",DRSC26057,0.229,8.60e5,8.97e5,inactive
mthl8 (methuselah-like 8),DRSC08211,-0.53,7.23e5,6.24e5,inactive
mthl8 (methuselah-like 8),DRSC08311,0.437,5.32e5,7.87e5,inactive
CG13654,DRSC14654,-0.202,3.02e5,7.09e5,inactive
CG13654,DRSC39888,-0.109,5.80e5,5.69e5,inactive
et (eye transformer),DRSC19582,-0.403,6.56e5,7.44e5,inactive
Cad89D (Cadherin 89D),DRSC15022,0.552,3.53e5,7.49e5,inactive
Cad89D (Cadherin 89D),DRSC39775,0.0422,5.19e5,4.42e5,inactive
CG4645,DRSC19907,-0.847,6.10e5,6.26e5,inactive
CG4645,DRSC24802,-1.81,6.33e5,6.17e5,active
Tsp5D (Tetraspanin 5D),DRSC18380,-0.226,5.52e5,7.00e5,inactive
Tsp5D (Tetraspanin 5D),DRSC39908,1.13,6.60e5,7.02e5,inactive
CG11367,DRSC22434,-1.11,6.98e5,7.27e5,inactive
Toll-7,DRSC29640,0.562,9.42e5,8.43e5,inactive
Toll-7,DRSC39883,-1.87,4.69e5,3.75e5,active
Ir68b (Ionotropic receptor 68b),DRSC10251,2.01,1.22e6,1.10e6,active
Ir68b (Ionotropic receptor 68b),DRSC39424,0.291,5.07e5,4.40e5,inactive
CG33124,DRSC00298,0.727,7.88e5,7.73e5,inactive
SPoCk (Secretory Pathway Calcium atpase),DRSC11844,-0.975,7.89e5,7.48e5,inactive
SPoCk (Secretory Pathway Calcium atpase),DRSC24007,0.331,9.24e5,8.07e5,inactive
CG6696,DRSC20004,-0.252,6.83e5,7.49e5,inactive
CG6696,DRSC25648,1.4,9.97e5,1.05e6,inactive
CG33337,DRSC27000,2.49,8.58e5,9.81e5,active
CG33337,DRSC39721,0.67,5.28e5,4.93e5,inactive
CG6006,DRSC13137,0.662,3.19e5,8.60e5,inactive
CG6006,DRSC15946,0.423,7.78e5,7.21e5,inactive
CG9855,DRSC12344,1,8.15e5,8.62e5,inactive
CG33303,DRSC02848,1.2,8.20e5,8.86e5,inactive
CG33303,DRSC39812,-0.656,4.44e5,4.21e5,inactive
CG17751,DRSC22837,0.31,5.44e5,6.69e5,inactive
CG17751,DRSC24497,-0.341,8.15e5,7.51e5,inactive
Tsp29Fb (Tetraspanin 29Fb),DRSC03233,-0.128,7.68e5,6.58e5,inactive
Tsp29Fb (Tetraspanin 29Fb),DRSC26296,0.45,9.40e5,8.72e5,inactive
CG30160 + Tsp42Eb,DRSC04961,0.215,7.19e5,8.16e5,inactive
CG30160 + Tsp42Eb,DRSC06791,1.23,8.57e5,8.95e5,inactive
mthl6 (methuselah-like 6),DRSC10234,0.74,1.00e6,9.82e5,inactive
mthl6 (methuselah-like 6),DRSC39848,-0.243,4.67e5,4.57e5,inactive
bumpel,DRSC16100,1.23,3.03e5,1.03e6,inactive
Coq4 + frc,DRSC10381,-0.552,8.11e5,8.35e5,inactive
LpR1 (Lipophorin receptor 1),DRSC15665,-2.01,5.25e5,4.72e5,active
LpR1 (Lipophorin receptor 1),DRSC15669,-1.32,2.33e5,6.36e5,inactive
LpR1 (Lipophorin receptor 1),DRSC27848,1.67,8.07e5,8.92e5,active
Pex23 (Peroxin 23),DRSC10323,-0.355,6.99e5,6.87e5,inactive
Pex23 (Peroxin 23),DRSC10645,-1.06,7.89e5,7.28e5,inactive
Pex23 (Peroxin 23),DRSC28370,-0.106,9.28e5,7.03e5,inactive
CG4822,DRSC00669,0.416,4.86e5,5.31e5,inactive
GrlHz (Gustatory receptor-like Holozoa),DRSC04424,-0.331,6.53e5,7.40e5,inactive
GrlHz (Gustatory receptor-like Holozoa),DRSC39675,0.552,4.78e5,5.29e5,inactive
Vha16-2 (Vacuolar H[+] ATPase 16kD subunit 2),DRSC10873,0.2,9.33e5,9.11e5,inactive
Vha16-2 (Vacuolar H[+] ATPase 16kD subunit 2),DRSC25504,0.44,9.06e5,9.04e5,inactive
CG8399,DRSC07163,-0.729,6.02e5,7.06e5,inactive
CG8399,DRSC39793,-1.13,3.90e5,4.11e5,inactive
CG5002,DRSC06911,0.655,8.27e5,7.74e5,inactive
PGRP-SD (Peptidoglycan recognition protein SD),DRSC10856,-0.0583,8.93e5,8.84e5,inactive
Ctl2 (Choline transporter-like 2),DRSC29712,-0.401,8.82e5,6.77e5,inactive
eloF (elongase F),DRSC15162,-0.0921,2.83e5,7.84e5,inactive
eloF (elongase F),DRSC25406,-0.343,8.69e5,7.02e5,inactive
CG8925,DRSC16455,1.47,4.08e5,8.13e5,inactive
CG8925,DRSC16457,-0.0405,7.33e5,7.43e5,inactive
wun (wunen),DRSC07719,-1,6.29e5,6.18e5,inactive
wun (wunen),DRSC36710,-0.555,5.14e5,5.52e5,inactive
wun (wunen),DRSC36711,-0.814,4.49e5,5.73e5,inactive

12 of these entries, set out differently.
Target gene	amplicon	ATP z-score, duplicate mean	ATP luminescence, replicate 1 (RLU)	ATP luminescence, replicate 2 (RLU)	Outcome
Arms (Ankyrin repeat-rich membrane spanning)	DRSC03856	-0.136	6.44e5	7.37e5	inactive
Arms (Ankyrin repeat-rich membrane spanning)	DRSC04052	1.45	8.18e5	9.56e5	inactive
Yif1 (Yip1-interacting factor 1)	DRSC15817	-2.11	5.16e5	6.49e5	active
shg (shotgun)	DRSC04714	0.29	7.78e5	7.45e5	inactive
shg (shotgun)	DRSC38948	-1.52	4.47e5	4.55e5	active
FucT6 (alpha1,6-fucosyltransferase)	DRSC19848	0.0194	7.19e5	6.96e5	inactive
FucT6 (alpha1,6-fucosyltransferase)	DRSC26057	0.229	8.60e5	8.97e5	inactive
mthl8 (methuselah-like 8)	DRSC08211	-0.53	7.23e5	6.24e5	inactive
mthl8 (methuselah-like 8)	DRSC08311	0.437	5.32e5	7.87e5	inactive
CG13654	DRSC14654	-0.202	3.02e5	7.09e5	inactive
CG13654	DRSC39888	-0.109	5.80e5	5.69e5	inactive
et (eye transformer)	DRSC19582	-0.403	6.56e5	7.44e5	inactive
